Results are given in words; binding and its absence hold for the method and conditions named. Some binding calls cover weakened binding; strength is not graded here.
T1: full-length human TIGIT on cells (human, UniProt Q495A1 22-244)
T1 construct: whole, on cells; The same protein is used for CHO-hTIGIT, PBMC and NK92-hTIGIT; the cells are named under assay; also called CHO-hTIGIT; hTIGIT
T1 sequence (looked up): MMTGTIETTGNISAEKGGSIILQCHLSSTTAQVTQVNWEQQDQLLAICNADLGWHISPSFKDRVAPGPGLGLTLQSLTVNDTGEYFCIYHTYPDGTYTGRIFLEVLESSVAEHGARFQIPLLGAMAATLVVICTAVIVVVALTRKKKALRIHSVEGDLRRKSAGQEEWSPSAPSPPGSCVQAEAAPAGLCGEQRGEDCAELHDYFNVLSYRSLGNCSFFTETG

T2: hTIGIT-hFc (human, UniProt Q495A1 22-141)
T2 construct: also called antigen protein hTIGIT-hFc; human TIGIT recombinant protein carrying a human Fc tag; not shown: human Fc tag
T2 sequence (looked up): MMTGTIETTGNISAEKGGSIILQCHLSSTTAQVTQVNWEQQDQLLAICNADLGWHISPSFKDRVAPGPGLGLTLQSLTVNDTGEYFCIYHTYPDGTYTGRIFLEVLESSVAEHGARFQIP


Legend:
[1] = biological target: T1, full-length human TIGIT on cells; test: FACS on CHO-hTIGIT cells
[2] = biological target: full-length cynoTIGIT on CHO cells (monkey (cyno)); test: FACS on CHO-cynoTIGIT cells (figure legend)
[3] = biological target: T1, full-length human TIGIT on cells; test: FACS on PBMC of healthy people (figure legend)
hTIGIT-hFc = biological target: T2, hTIGIT-hFc; test: FACS blocking: antibody preincubated with hTIGIT-hFc, then CHO-hPVR cells, PE anti-human IgG Fc; blocked partner PVR on cells
Procedure: The CHO-engineered cells CHO-hPVR cells recombinantly expressing full-length human PVR were counted centrifugated at 300 g for 5 min, resuspended with an FCM buffer, the cells were added to the 96-well V-shaped plate; the volume of each cell added into a 96-well V-shaped plate was 2E+05 cell/well (being added in 50 μL/well); and incubation was performed in dark on ice for 30 min. Centrifugation (300 g/5 min) was performed; supernatant was discarded; 200 μL of the FCM buffer was added for washing once; centrifugation (300 g/5 min) was performed; and the supernatant was discarded. Secondary antibodies (PE anti-human IgG Fc, 1:500 dilution) were added to the 96-well V-shaped plate (in 100 μL/well); and incubation was performed in dark on ice for 30 min. Centrifugation (300 g/5 min) was performed; supernatant was discarded; 200 μL of the FCM buffer was added for washing once; centrifugation (300 g/5 min) was performed; and the supernatant was discarded. 100 μL of the 1×PBS was added for resuspending, and on-machine detection was performed.

[4] = biological target: full-length cynoTIGIT on CHO cells (monkey (cyno)); test: FACS on CHO-cynoTIGIT cells
[5] = biological target: T1, full-length human TIGIT on cells; test: FACS blocking: antibody on CHO-hTIGIT cells, then hPVR-hFc, PE anti-human IgG Fc; blocked ligand hPVR-hFc
Procedure: The CHO-engineered cells CHO-hTIGIT cells recombinantly expressing full-length human TIGIT were counted, and centrifugated at 300 g for 5 min, resuspended with an FCM buffer, and cell density was adjusted to 4E+06 cell/mL for later use. […] According to an experimental design, in each well, 50 μL of the antibody and 50 μL of the cell (the volume of each cell added into a 96-well V-shaped plate being 2E+05 cell/well) were respectively added in the 96-well V-shaped plate; and incubation was performed in dark on ice for 30 min. The ligand protein was added to the 96-well V-shaped plate (in 50 μL/well); and incubation was performed in dark on ice for 30 min. Centrifugation (300 g/5 min) was performed; supernatant was discarded; 200 μL of the FCM buffer was added for washing once; centrifugation (300 g/5 min) was performed; and the supernatant was discarded. Secondary antibodies (PE anti-human IgG Fc, 1:500 dilution) were added to the 96-well V-shaped plate (in 100 μL/well); and incubation was performed in dark on ice for 30 min. Centrifugation (300 g/5 min) was performed; supernatant was discarded; 200 μL of the FCM buffer was added for washing once; centrifugation (300 g/5 min) was performed; and the supernatant was discarded. 100 μL of the 1×PBS was added for resuspending, and on-machine detection was performed.

[6] = biological target: T1, full-length human TIGIT on cells; test: FACS on PBMC of healthy people (naturally expressed TIGIT)
[7] = biological target: T1, full-length human TIGIT on cells; test: FACS on CHO-hTIGIT cells (figure legend)
[8] = biological target: full-length cynoTIGIT on CHO cells (monkey (cyno)); test: FACS titration on CHO-cynoTIGIT cells, PE goat anti-mouse IgG

| binding [1] | binding [2] | binding [3] | binding (hTIGIT-hFc) | binding [4] | binding [5] | binding [6] | binding [7] | binding [8] | Binder |
| --- | --- | --- | --- | --- | --- | --- | --- | --- | --- |
| binds | binds | binds | binds | binds | binds | binds | binds | – | 3Tigit-16 mouse monoclonal antibody (antibody, V domains shown, Mouse monoclonal antibody from hybridoma) VH: EVQLQQSGPELVKPGASVKMSCKASGFTFTDYFMDWVKQSRGASFEWIGRLNPNNGRTSYNQKFKGKATLTVDKSSSTAYMELNSLTSEDSAVYYCARGDLGRWYFDVWGAGTTVTVSS VL: QIVLTQSPAIMSASPGEKVTMTCSASSSVSYMHWYQQKSGTSPKRWIYDTSKLASGVPTRFSGSGSGTSYSLTISSMEAEDAASYFCQQWSSNSLTFGAGTKLELKR |
| binds | binds | binds | binds | binds | binds | binds | binds | – | 3Tigit-29 mouse monoclonal antibody (antibody, V domains shown, Mouse monoclonal antibody from hybridoma) VH: EVQLQQSGPELVKPGASVKISCKASGYTFTDYNMHWVKQSLGKSLEWIGYVNSFNGNTGYSQKFKSKVTLTVDRSSRTAYMDLRSLTSEDSAVFYCARSSRGGFAYWGQGTLVTVSA VL: QIVLTQSPAIMSASPGEKVTMTCSASSSVSYMHWYQQKSGTSPKRWIYDTSKLASGVPARFSGSVSGTSYSLTISSMEAEDAATYYCQQWSSNSLTFGAGTKLELKR |
| – | binds | – | – | binds | – | – | – | – | Tigit-5 mouse monoclonal antibody (antibody, V domains shown, Mouse monoclonal antibody from hybridoma) VH: QVQLQQPGAELVRPGASVKLSCKASGYSFTSYWMNWVKQRPGQGLEWIGMIRPSDSETRLNQMFKDKATLTVDKSSSTAYMQLSSPTSDDSAVYYCAGIHDYGHGAYWGQGTLVTVSA VL: DIQMIQSPASLSVSVGETVTITCRASENIYSNLAWYQQKQGKSPQLLVYAASHLPDGVPSRFSGSGSGTQYSLKINSLQSEDFGSYYCQHFWGTPRTFGGGTKLEIKR |
| – | binds | – | – | binds | – | – | – | binds | 14Tigit-1-1 mouse monoclonal antibody (antibody, V domains shown, Mouse monoclonal antibody from hybridoma) VH: DVQLQESGPGLVKPSQSLSLTCTVTGYSITSDYAWNWIRQFPGNKLEWMGYISYSGSTRSNPSLKSRISITRDTSKNQFFLQLNSMTAEDTATYYCGGWEVRNYYAMDYWGQGTSVTVSS VL: DIVMTQSHKFMSTSVGDRVSITCKASQHVSTAVAWYQQKPGQSPKLLIYSASYRYTGVPDRFTGSGSGTDFTFTISSVQAEDLAVYYCQQHYNTPWTFGGGTKLEIKR |

From patent publication US20240002500A1 (GUANGDONG FAPON BIOPHARMA, published 2024)
